Data as given in US9605050B2, “Glycoprotein synthesis and remodeling by enzymatic transglycosylation” (UNIVERSITY OF MARYLAND, BALTIMORE, priority 2006, dated 2017).
Some results were stated once for a whole list of compounds, not compound by compound. At least one structure is not confirmed: it was looked up by name or label, or the drawing left a doubt.

Chains of the proteins cited; added tags and fusions are not shown.
UniProt Q9ZB22, entry or part of it: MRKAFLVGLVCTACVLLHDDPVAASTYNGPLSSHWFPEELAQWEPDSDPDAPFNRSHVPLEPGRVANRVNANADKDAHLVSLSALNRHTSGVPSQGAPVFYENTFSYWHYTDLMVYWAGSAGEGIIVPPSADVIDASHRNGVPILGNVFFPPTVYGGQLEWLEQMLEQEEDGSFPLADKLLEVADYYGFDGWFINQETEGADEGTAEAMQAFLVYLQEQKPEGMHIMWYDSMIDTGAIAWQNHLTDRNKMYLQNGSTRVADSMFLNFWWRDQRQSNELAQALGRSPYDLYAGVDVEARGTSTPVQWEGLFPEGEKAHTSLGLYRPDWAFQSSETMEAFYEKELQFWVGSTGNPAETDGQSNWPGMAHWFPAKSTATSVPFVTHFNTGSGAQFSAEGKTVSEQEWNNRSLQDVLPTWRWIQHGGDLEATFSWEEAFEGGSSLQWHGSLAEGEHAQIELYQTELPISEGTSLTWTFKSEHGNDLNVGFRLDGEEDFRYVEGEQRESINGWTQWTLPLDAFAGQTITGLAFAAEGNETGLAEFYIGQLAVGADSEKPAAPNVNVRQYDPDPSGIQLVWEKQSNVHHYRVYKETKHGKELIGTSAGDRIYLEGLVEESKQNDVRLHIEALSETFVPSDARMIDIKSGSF

Biological target: Endo-A (Glutamicibacter protophormiae, UniProt Q9ZB22)
Assay: Endo-A catalyzed transglycosylation of synthetic oligosaccharide oxazolines (donor substrates) with GlcNAc-peptide/protein acceptors
Type: biochemical, Arthrobacter protophormiae
Conditions: GlcNAc-peptide acceptor, phosphate buffer 50 mM pH 6.5, 25° C., Endo-A 100 mU
Description: To test the transglycosylation potential of the synthetic oligosaccharide oxazolines, a small GlcNAc-tripeptide acceptor, Asn(GlcNAc)-Ile-Thr was synthesized, which represents the minimum consensus sequence for the N24 and N38 N-glycosylation sites in erythropoietin, an important therapeutic glycoprotein for the treatment of anemia.[25] […] As expected, the Endo-A catalyzed reaction of oxazolines 1 and 2 with the GlcNAc-peptide 27 (donoracceptor 3:1) proceeded smoothly in a phosphate buffer (pH 6.5) to give the corresponding N-glycopeptides 28 and 29 in 63 and 86% yields, respectively. […] Thus incubation of 3 and acceptor 27 (ratio 3:1) in the presence of Endo-A gave glycopeptide 30 carrying the N-linked tetrasaccharide moiety in 72% isolated yield. […]
In all cases, the newly formed glycosidic bond in the resulting glycopeptides 28, 29, 30, and 31 was determined by 2D NMR analysis (data not shown) to be a β-1,4-glycosidic linkage, confirming the previous conclusion that the Endo-A catalyzed transglycosylation using oligosaccharide oxazoline as the donor substrates proceeded in a regio- and stereospecific manner.[11] […]
A mixture of the respective oligosaccharide oxazoline (10-30 μmol) and the GlcNAc-tripeptide 27 (3 molar equivalents of the donor) or the GlcNAc-C34[7] […] The reaction was monitored by analytical HPLC by taking aliquots at intervals. […]

For `CC1=N[C@H]2[C@@H](O1)O[C@H](CO)[C@@H](O[C@@H]1O[C@H](COCc3ccccc3)[C@@H](O)[C@H](O)[C@@H]1O)[C@@H]2O` [oxazoline 4], the “time for transglycosylation to reach the plateau / be complete” value was “more than 48 h”.
